PubChem BioAssay AID1259254 | NCATS – 2017
Assay: 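Finding genes that stop cells copying their DNA twice in one cycle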 (primary screen). Cells: human HCT116 colorectal cancer cells. Reagents: single siRNA against human genes. Duration: 3 days. Measured: 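Imaged Hoechst DNA stain sorts each cell into a cycle phase by DNA amount; per plate, G2 fraction set to 0% for non-targeting and 100% for GMNN siRNA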. Reading the numbers: G2 robust z-score: higher = more G2 cells, more excess DNA replication. Active means: 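Active siRNAs have a G2 robust z of 5 or more median absolute deviations over the median, which in these data means about 38% or higher of GMNN control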.
Shown is an unselected part of about 59,000 reagents tested. Over the whole deposit, about 1,550 (2.6%) are marked active. 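G2 share is only a proxy for re-replication; each gene was hit by three separate siRNAs, and active genes were retested.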 A number with no mark means an inactive call. The numbers tell different reagents against one gene apart. Not all columns of the deposit are shown. Not given: the amount of reagent.

NUP54 (nucleoporin 54) #1: G2 robust z-score = -0.0956
NUP54 (nucleoporin 54) #2: G2 robust z-score = 2.46
NUP54 (nucleoporin 54) #3: G2 robust z-score = -1.05
PPOX (protoporphyrinogen oxidase) #1: G2 robust z-score = 0.984
PPOX (protoporphyrinogen oxidase) #2: G2 robust z-score = -0.371
PPOX (protoporphyrinogen oxidase) #3: G2 robust z-score = 6.1 (active)

The list goes on, starting with the last 2 of the part before.
PPOX (protoporphyrinogen oxidase) #2: G2 robust z-score = -0.371
PPOX (protoporphyrinogen oxidase) #3: G2 robust z-score = 6.1 (active)
SH3BGR (SH3 domain binding glutamate rich protein) #1: G2 robust z-score = -1.07
SH3BGR (SH3 domain binding glutamate rich protein) #2: G2 robust z-score = -0.675
SH3BGR (SH3 domain binding glutamate rich protein) #3: G2 robust z-score = 1.47
CCDC43 (coiled-coil domain containing 43) #1: G2 robust z-score = -0.621
CCDC43 (coiled-coil domain containing 43) #2: G2 robust z-score = -0.217
CCDC43 (coiled-coil domain containing 43) #3: G2 robust z-score = -0.0977
